Earlier results, collected in patent US11325978B2, “Compositions and methods for treating beta-globinopathies” (priority 2018, dated 2022).

Test system: RIOK3
Conditions: collection of 72 inhibitors against 456 human kinases (Davis et al. 2011)

inhibition of RIOK3 kinase activity	SMILES
inhibit RIOK3 kinase activity	CO[C@@H]1[C@H](N(C)C(=O)c2ccccc2)C[C@H]2O[C@]1(C)n1c3ccccc3c3c4c(c5c6ccccc6n2c5c31)C(=O)NC4 [midostaurin, Midostaurin]
inhibit RIOK3 kinase activity	CNC(=O)c1ccccc1Sc1ccc2c(/C=C/c3ccccn3)n[nH]c2c1 [axitinib, Axitinib]
